# This is one part of the list.
# Amino acid sequences for entries named in this document (tags omitted).
# UniProt Q0JBA9, entry or part of it: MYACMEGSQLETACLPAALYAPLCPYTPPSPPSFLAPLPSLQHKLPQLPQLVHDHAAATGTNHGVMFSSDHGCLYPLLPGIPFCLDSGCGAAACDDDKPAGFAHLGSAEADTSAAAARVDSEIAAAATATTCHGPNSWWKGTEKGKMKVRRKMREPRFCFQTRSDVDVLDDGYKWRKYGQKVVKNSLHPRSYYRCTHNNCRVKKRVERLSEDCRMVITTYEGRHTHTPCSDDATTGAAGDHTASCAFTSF
# Biological target: OsWRKY34 (Oryza sativa, UniProt Q0JBA9 1-250)
# Test: protein-binding microarray (RPBM); PBS, 2% BSA, 51.3 ng/ul salmon testes DNA, 50 uM zinc acetate, 200 nM TF, 25 C, 1 h; high values mean tight binding
# Settings: protein: recombinant; tags: N-terminal polyhistidine and DsRed monomer fusion (pET32a); label: CyDye5-dUTP incorporated in the synthesized complementary strand; 3' TTTTT single-stranded linker to array surface; dsDNA, one strand shown
# Method in brief: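 The binding signal is fluorescence intensity per array feature (arbitrary units). Readings came from an Axon 4000B scanner after a washed, 2% BSA-blocked, double-stranded custom Agilent array had been incubated for 1 h at 25 °C with 200 nM protein and 50 µM zinc acetate. The protein was a Ni–NTA-purified transcription factor fused N-terminally to polyhistidine and DsRed, expressed in E. coli BL21-CodonPlus.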
row,Sequence,binding signal
1,GGTGGAGGAGATTACAACTCTGGTGGCCGTGGTGGTGGCACGGAGTCACCTAGTGCAG,8510 fluorescence intensity (a.u.)
2,CGCCGCCTCGGGCCCAACCGCCGGCCACCGCACGCTGACGCGGAGTCACCTAGTGCAG,8500 fluorescence intensity (a.u.)
3,AGCGCCGGCTTCTTTCTCAATATGTGATTTTCTTTCCTTACGGAGTCACCTAGTGCAG,9840 fluorescence intensity (a.u.)
4,CTCTTGGCCTCGCGTGCAGTGCAGACCGCGCCTCCTATAACGGAGTCACCTAGTGCAG,8430 fluorescence intensity (a.u.)
5,TCTTGACTCTCTTTCGCTGTGCCTGTGAGCAACGCTGTTCCGGAGTCACCTAGTGCAG,11200 fluorescence intensity (a.u.)
6,ACCTTCGACGCGGACGCGCCTCTCCGCGAGCGCGTCTTTCCGGAGTCACCTAGTGCAG,8730 fluorescence intensity (a.u.)
7,CAACAAATGTATTATTACTATCTCTTTTCTACACGATAAACGGAGTCACCTAGTGCAG,8210 fluorescence intensity (a.u.)
8,CCGTTCTCTTGCTGCTGCTGCTTCTGCTTCTGCGCCGCCACGGAGTCACCTAGTGCAG,9550 fluorescence intensity (a.u.)
9,CTTCCATTCTTTCTAGTGCACTGTCTCAGTCAGGCATTATCGGAGTCACCTAGTGCAG,9740 fluorescence intensity (a.u.)
10,ATTAGTCGTGTGCTTGTTTGTGCTGTCCAACTGTACTTAACGGAGTCACCTAGTGCAG,8680 fluorescence intensity (a.u.)
11,TTCCCTCCTCACAAGCCACACACTCTATGCTCTCTATCTGCGGAGTCACCTAGTGCAG,9120 fluorescence intensity (a.u.)
12,TTCATACACACACAATTTTTCTATCATATCGTACAAATTTCGGAGTCACCTAGTGCAG,9060 fluorescence intensity (a.u.)
13,CAATCTCTGCACCCTCGGCTCGGCTCGCACCATTTCCAGTCGGAGTCACCTAGTGCAG,9870 fluorescence intensity (a.u.)
14,GGGTGGTAGGGTTTATACCTGTAAATATTTTCTTCGGTATCGGAGTCACCTAGTGCAG,10800 fluorescence intensity (a.u.)
15,CTTTTACGTCTCGTGCGCTACCCCGTTTTATTATTGCCGACGGAGTCACCTAGTGCAG,12200 fluorescence intensity (a.u.)
16,ATCGATATGATCTGCTTATAACTGAACCTTTAACCTTTTTCGGAGTCACCTAGTGCAG,8220 fluorescence intensity (a.u.)
17,GTTCCATATATTTTAGCACATCTGTAGCACACAGCACATACGGAGTCACCTAGTGCAG,8680 ± 733 fluorescence intensity (a.u.)
18,TTTTACATGATTGGATGACAAAGCCTATTTCGTTTTGTTGCGGAGTCACCTAGTGCAG,8080 fluorescence intensity (a.u.)
19,TTAATTTCTGTTTTGTAATGTTTATGTAATATATACTCTCCGGAGTCACCTAGTGCAG,8940 fluorescence intensity (a.u.)
20,GCAACTTCTCCGACGACGAGGAGCGCCTCATCATCCGCCTCGGAGTCACCTAGTGCAG,10100 fluorescence intensity (a.u.)
21,ACTTCTTCTCACTCAATTCCTCTTCTATTTTCTGAGATTGCGGAGTCACCTAGTGCAG,9300 fluorescence intensity (a.u.)
22,GCGGCGCTGCAGCGCGCCAGGTCGTCCGTCTTTATCCGTCCGGAGTCACCTAGTGCAG,8700 fluorescence intensity (a.u.)
23,CAACTCTTCGTTTTTCCCATACATACTTCCTAAACTGCTACGGAGTCACCTAGTGCAG,10700 fluorescence intensity (a.u.)
24,ACCCACATTAGTCACACGCACACACACCAACATCCACACACGGAGTCACCTAGTGCAG,11000 fluorescence intensity (a.u.)
25,CCACTTGTACATATACAACTTGTTTTGTGGGGAGGGGTGTCGGAGTCACCTAGTGCAG,12700 fluorescence intensity (a.u.)
26,CACTACCTCAGTATTCTCTACTACTACTCTTTTCTCAGAGCGGAGTCACCTAGTGCAG,8470 fluorescence intensity (a.u.)
27,ACCGGCCCACAACGACCCAGACACTCTCGCCGTCGCCGCCCGGAGTCACCTAGTGCAG,9240 fluorescence intensity (a.u.)

row,Sequence,binding signal
1,AGAGGAGACAGAACCCCTGACTTTATACAGTTTGCAGTTACGGAGTCACCTAGTGCAG,8340 fluorescence intensity (a.u.)
2,TATTAGCTACTCCACAGCGTTAGCTTCGTCCACCCAATTTCGGAGTCACCTAGTGCAG,10200 fluorescence intensity (a.u.)
3,GTCATTGGCTTCGCATCGCCTAGGGGTTTATTGTAGTGTCCGGAGTCACCTAGTGCAG,8360 fluorescence intensity (a.u.)
4,GAGAGGTGTTGCAATGTGCATTGGATGTGTAGATAGAGCCCGGAGTCACCTAGTGCAG,8040 fluorescence intensity (a.u.)
5,AGTGGTTTCATATTCTGTCAAGTTGCACATTGCTCTAATTCGGAGTCACCTAGTGCAG,9810 fluorescence intensity (a.u.)
6,GCCCCATACATTTCTGATTGCTCCCATACGATTTGGGCGGCGGAGTCACCTAGTGCAG,10300 fluorescence intensity (a.u.)
7,GGTGGCTGCTGATTCTTTCTTCTTCTCCTCTCTCGCTGGCCGGAGTCACCTAGTGCAG,9300 fluorescence intensity (a.u.)
8,GCTGTCTCGCTCAAGCGCGACCTACCACAGCATCGGATCGCGGAGTCACCTAGTGCAG,8050 fluorescence intensity (a.u.)
9,TGGAGACCACGTCAGCACCCTCTCTCTTTTTCTCCTCTCTCGGAGTCACCTAGTGCAG,8590 fluorescence intensity (a.u.)
10,CAATCTCCCACTCCATTCCGGCCGCGCATTCTCCCGCTCTCGGAGTCACCTAGTGCAG,14400 fluorescence intensity (a.u.)
11,CATCGTCTTTTCTGTTCCGTGCAAGCGCTGTTGCCTGCCTCGGAGTCACCTAGTGCAG,8780 fluorescence intensity (a.u.)
12,GACAGTTTTTCGGGTTCCTATCTTTCACGTTTTCGTCCATCGGAGTCACCTAGTGCAG,8320 fluorescence intensity (a.u.)
13,TGCAGAACATGAATCACACTCATCCTTGCACTGGCCATCCCGGAGTCACCTAGTGCAG,8890 fluorescence intensity (a.u.)
14,TGGGACTTTATTTGCACTGGTTTTGGGAGTTGAGGGACACCGGAGTCACCTAGTGCAG,8550 fluorescence intensity (a.u.)
15,GTGGTTGATTTGACCTTTTACATTGTACAGATGGTATTGGCGGAGTCACCTAGTGCAG,8480 fluorescence intensity (a.u.)
16,CCACCATTCCGCGTTAAAGCGTTTTCCCGCACGGGCTGAGCGGAGTCACCTAGTGCAG,8220 fluorescence intensity (a.u.)
17,AGAAGACGACACTCCCCGCCATCCAGAGCTGCCCTATATGCGGAGTCACCTAGTGCAG,8280 fluorescence intensity (a.u.)
18,GTTTGACCGTTTATTTTATTCAAAAACTTTTGTGATATGTCGGAGTCACCTAGTGCAG,8440 fluorescence intensity (a.u.)
19,GCCGATAAGGTGCTCCGCCTCCGCCGCGGCTTGCCTTACACGGAGTCACCTAGTGCAG,8690 fluorescence intensity (a.u.)
20,ACGCTATCCCGCCGCCGCCGCGTGTCTCCCCAATCCCAATCGGAGTCACCTAGTGCAG,8760 fluorescence intensity (a.u.)
21,CGCCCCTCCCCTTTGGCGCCGCCGCGCCTGCGTTGACCCTCGGAGTCACCTAGTGCAG,8230 fluorescence intensity (a.u.)
22,CCAATTCCCACTTGTCAGTTAGAACTTCACATGTCCAAATCGGAGTCACCTAGTGCAG,8570 fluorescence intensity (a.u.)
23,TCTTGTGCCTTTTGTTCTTATGTAAGCTTATGTGTCATCTCGGAGTCACCTAGTGCAG,11300 fluorescence intensity (a.u.)
24,ATTTTCAACCCCGTCACATGTGACTAGTTATCGGATCGCACGGAGTCACCTAGTGCAG,8120 fluorescence intensity (a.u.)
25,CGATTCGCGCTCTCCCCGACTCCAGCGCCTTCGTCTTCTTCGGAGTCACCTAGTGCAG,9960 fluorescence intensity (a.u.)
26,GCGGCGGAGGAGGGCAAGGCGAAGTGCGGCGGCGGGGAAGCGGAGTCACCTAGTGCAG,10500 fluorescence intensity (a.u.)
27,TGTATTTTTCTCCATCCCTTTCTTCAGTACCAGGATTAATCGGAGTCACCTAGTGCAG,9690 fluorescence intensity (a.u.)

# Shown with tabs: part of the list above.
row	Sequence	binding signal
4	GAGAGGTGTTGCAATGTGCATTGGATGTGTAGATAGAGCCCGGAGTCACCTAGTGCAG	8040 fluorescence intensity (a.u.)
18	GTTTGACCGTTTATTTTATTCAAAAACTTTTGTGATATGTCGGAGTCACCTAGTGCAG	8440 fluorescence intensity (a.u.)

# Source: publication PMC7819943, “Rice protein-binding microarrays: a tool to detect cis-acting elements near promoter regions in rice”
